Assay: general procedure: solution-phase peptide synthesis; DCCI/HOBt; azide method; HOOBt ester
Conditions: late stage modification step, acetate

H-Met-Ala-Ala-Phe-D-Lys-Phe-Gly-D-Lys-Pro-Val-Gly-Lys-Lys-NH2.acetate
step yield: 65.8%
